The target of test [1] is Kelch-like ECH-associated protein-1 (Keap1) (UniProt Q14145). Nature of the test: co-immunoprecipitation of endogenous proteins from T24 and BFTC905 cell lysates, western blot. Background: Immunoblotting shows a protein as a band on a membrane.
Test [2] has the same target. Nature of the test: in vitro data of the example (co-immunoprecipitation), as told in the discussion.

Sequences of proteins named here, by UniProt entry; tags and fusion partners are left off.
UniProt Q14145: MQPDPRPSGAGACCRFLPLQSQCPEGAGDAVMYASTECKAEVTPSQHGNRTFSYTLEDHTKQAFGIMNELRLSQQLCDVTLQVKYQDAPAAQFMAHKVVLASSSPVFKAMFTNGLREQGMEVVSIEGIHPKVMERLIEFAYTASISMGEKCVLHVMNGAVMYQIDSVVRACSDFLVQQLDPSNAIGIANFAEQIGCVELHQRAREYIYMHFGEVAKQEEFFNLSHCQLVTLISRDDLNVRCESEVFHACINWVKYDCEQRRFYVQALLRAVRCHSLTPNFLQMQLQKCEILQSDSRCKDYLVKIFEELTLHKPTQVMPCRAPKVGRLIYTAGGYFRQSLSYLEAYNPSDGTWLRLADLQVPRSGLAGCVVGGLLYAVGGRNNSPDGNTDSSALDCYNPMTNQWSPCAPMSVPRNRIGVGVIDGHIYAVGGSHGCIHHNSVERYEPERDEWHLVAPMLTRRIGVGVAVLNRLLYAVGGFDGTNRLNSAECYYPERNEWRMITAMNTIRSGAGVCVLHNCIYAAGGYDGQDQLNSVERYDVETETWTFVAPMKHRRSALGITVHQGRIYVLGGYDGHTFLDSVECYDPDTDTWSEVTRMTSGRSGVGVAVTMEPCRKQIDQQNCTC

These are yes or no findings as the source states them, for the method shown. In cells and extracts the contact can be indirect. Some binding calls cover weakened binding; strength is not graded here.

B1: PTB Domain-Containing Engulfment Adaptor Protein1 (GULP1) (other, human, UniProt Q9UBP9 1-304, looked up)
chain: MNRAFSRKKDKTWMHTPEALSKHFIPYNAKFLGSTEVEQPKGTEVVRDAVRKLKFARHIKKSEGQKIPKVELQISIYGVKILEPKTKEVQHNCQLHRISFCADDKTDKRIFTFICKDSESNKHLCYVFDSEKCAEEITLTIGQAFDLAYRKFLESGGKDVETRKQIAGLQKRIQDLETENMELKNKVQDLENQLRITQVSAPPAGSMTPKSPSTDIFDMIPFSPISHQSSMPTRNGTQPPPVPSRSTEIKRDLFGAEPFDPFNCGAADFPPDIQSKLDEMQEGFKMGLTLEGTVFCLDPLDSRC
notes: Endogenous protein from cell lysates; also called engulfment adaptor PTB domain containing 1; human homologue of CED-6
Consider B1, for which the binding result in test [1] and in test [2] was “binds” each time.
